Laboratory results taken from patent publication US20110294748A1 (Janssen / Centocor, published 2011).
These are yes or no findings as the source states them, for the method shown. A result given as binding can be weak or reduced; the word gives no strength.

B1: phage clone 16 (peptide SEQ ID NO: 12 displayed on pIX phage) (peptide, not shown: large carriers)
peptide: AGCPSPMPPVDPGFYSAIVQLCRE
B2: phage clone 5 (peptide SEQ ID NO: 1 displayed on pIX phage) (peptide, not shown: large carriers)
peptide: TGCDFPELCRGCHP

Biological target: insulin receptor
Test: phage ELISA, phage lysate

Row | Binder | binding
1 | B1 | binds
2 | B2 | binds
